No constants are given. Whether binding was seen depends on the method and setting. For some assays here: Binding calls can cover weak binding; strength is not graded here. For some assays here: Where a sequence is shown, tags or fusion partners need not be part of it. For some assays here: Binding seen in cells or lysates may run through a third protein.

Among the data in paper PMC6055584 are binding values, retold here.

B1: pSPYNE173-DTH8 (BiFC fusion) (protein, UniProt Q0J7P4 1-297)
chain: MKSRKSYGHLLSPVGSPPLDNESGEAAAAAAAGGGGCGSSAGYVVYGGGGGGDSPAKEQDRFLPIANVSRIMKRSLPANAKISKESKETVQECVSEFISFVTGEASDKCQREKRKTINGDDLLWAMTTLGFEAYVGPLKSYLNRYREAEGEKADVLGGAGGAAAARHGEGGCCGGGGGGADGVVIDGHYPLAGGLSHSHHGHQQQDGGGDVGLMMGGGDAGVGYNAGAGSTTTAFYAPAATAASGNKAYCGGDGSRVMEFEGIGGEEESGGGGGGGERGFAGHLHGVQWFRLKRNTN
B2: HAP3A (protein, UniProt Q5QMG3 1-178)
chain: MMMMDLGFLEGGAGMADAGHDESGSPPRSGGVREQDRFLPIANISRIMKKAVPANGKIAKDAKETLQECVSEFISFVTSEASDKCQKEKRKTINGEDLLFAMGTLGFEEYVDPLKIYLHKYREVIGDSKLSSKAGDGSVKKDTIGPHSGASSSSAQGMVGAYTQGMGYMQPQYHNGDT
B3: HAP3B (protein, UniProt Q60EQ4 1-185)
chain: MADGPGSPGGGGGSHESGSPRGGGGGGGGGGGGGGVREQDRFLPIANISRIMKKAIPANGKIAKDAKETVQECVSEFISFITSEASDKCQREKRKTINGDDLLWAMATLGFEDYIEPLKVYLQKYREMEGDSKLTAKAGDGSVKKDVLGSHGGSSSSAQGMGQQAAYNQGMGYMQPQYHNGDVSN
B4: Days To Heading on chromosome 8 (DTH8), yeast two-hybrid fusion (protein, UniProt Q0J7P4 1-297)
chain: B1 chain
B5: TFIIB (protein, UniProt Q8W0W3 1-312)
chain: MSDSFCPDCKKHTEVAFDHSAGDTVCTECGLVLEAHSVDETSEWRTFANESSDNDPVRVGGPTNPLLTDGGLSTVIAKPNGAQGEFLSSSLGRWQNRGSNPDRSLILAFRTIANMADRLGLVATIKDRANEIYKKVEDLKSIRGRNQDAILAACLYIACRQEDRPRTVKEICSVANGATKKEIGRAKEFIVKQLEVEMGQSMEMGTIHAGDFLRRFCSTLGMNNQAVKAAQEAVQRSEELDIRRSPISIAAAVIYMITQLSDDKKPLKDISLATGVAEGTIRNSYKDLYPYASRLIPNTYAKEEDLKNLCTP
B6: DTH8-Ghd8-OsHAP3H residues 3-125 (library prey clone) (domain or fragment, UniProt Q0J7P4 3-125)
chain: SRKSYGHLLSPVGSPPLDNESGEAAAAAAAGGGGCGSSAGYVVYGGGGGGDSPAKEQDRFLPIANVSRIMKRSLPANAKISKESKETVQECVSEFISFVTGEASDKCQREKRKTINGDDLLWA

For the first assay, the target named is pSPYCE(M)-OsHAPL1 (BiFC fusion) (rice (Oryza sativa)). In words: split reporter; BiFC; YFPC (pSPYCE(M)) and YFPN (pSPYNE173) fusions, Agrobacterium GV3101 infiltration of N. benthamiana leaves, imaged 3 days after infiltration.
As to B1, the binding result is “binds”.

The target in the next assay is Hd1(ΔCCT) fused with the GAL4 DNA binding domain (rice (Oryza sativa)). Kind of assay: two-hybrid; pairwise; pGBKT7 baits and pGADT7 preys co-transformed into S. cerevisiae AH109; growth on Synthetic Dropout/-Trp-Leu-His-Ade at 30°C.
Consider B2, for which the binding entry is “binds”.

Take B3: the binding entry is given as “binds”.

As for B4, the binding result is “binds”.

For another assay, the target named is OsHAPL1-H (OsHAPL1 with the HAP domain only) (rice (Oryza sativa)). The assay is described as above.
As to B4, the binding result is “binds”.

The target of another assay is Heading date 1 (Hd1), yeast two-hybrid fusion (rice (Oryza sativa)). Described as above.
Take B5: the binding entry is on record as “no binding”.

The next assay deals with OsHAPL1-ΔH (OsHAPL1 with the HAP domain deleted) (rice (Oryza sativa)). Described as above.
On to B4, for which the binding result is “no binding”.

In another assay the target is T1, Days To Heading on chromosome 8 (DTH8), yeast two-hybrid fusion (rice (Oryza sativa)) (UniProt Q0J7P4).
T1 sequence: B1 chain
The description is as above.
For the molecule HAP2B (rice (Oryza sativa)), the binding result was “binds”.

With HAP2E (rice (Oryza sativa)), the binding result is “binds”.

HAP2G (rice (Oryza sativa)): the binding result is given as “binds”.

With HAP2H (rice (Oryza sativa)), the binding entry is on record as “binds”.

With HAP2I (rice (Oryza sativa)), the binding result is “binds”.

Turning to HAP2J (rice (Oryza sativa)), the binding result was “binds”.

Turning to HAP3D (rice (Oryza sativa)), the binding entry is “binds”.

With HAP3E (rice (Oryza sativa)), the binding entry was “binds”.

For the molecule HAP3F (rice (Oryza sativa)), the binding result is given as “binds”.

On to HAP3J (rice (Oryza sativa)), for which the binding entry is “binds”.

On to HAP3K (rice (Oryza sativa)), for which the binding entry is “binds”.

Consider HAP5A (rice (Oryza sativa)), for which the binding entry is “binds”.

For HAP5B (rice (Oryza sativa)), the binding result is “binds”.

For HAP5D (rice (Oryza sativa)), the binding result was “binds”.

As to HAP5G (rice (Oryza sativa)), the binding result is “binds”.

For the molecule “Heading date 1 (Hd1), yeast two-hybrid fusion (rice (Oryza sativa))”, the binding result is recorded as “binds”.

Regarding TATA-Binding Protein (TBP), the binding result was “no binding”.

Another assay concerns the target Heme Activator Protein like 1 (OsHAPL1), yeast two-hybrid fusion (rice (Oryza sativa)). The description is as above.
Turning to B2, the binding entry is “binds”.

Take B5: the binding entry is recorded as “no binding”.

In the case of B4, the binding entry is “binds”.

The target is the same in another assay. Kind of assay: two-hybrid; library screen in yeast strain AH109; bait pGBKT7-OsHAPL1 (GAL4 DNA binding domain fusion), prey a rice GAL4 activation fusion library.
Take B6: the binding result is “binds”.

The target in the next assay is T2, GST-tagged DTH8 (rice (Oryza sativa)) (UniProt Q0J7P4).
T2 sequence: B1 chain
Kind of assay: pull-down; GST pull-down; E. coli BL21 lysates of the two proteins mixed in 25 mM Tris-HCl pH 7.5, 150 mM NaCl, 1 mM DTT, glutathione agarose beads overnight at 4°C; washes with 1% Triton X100 and 0.1% SDS; blots with anti-GST and anti-MBP.
“MBP-tagged OsHAPL1 (rice (Oryza sativa))”: the binding result was “binds”.
